Experimental data taken from the supplement of paper PMC10849652.
Some of the results follow.

Protein sequences, listed by entry. Tags and fused reporters are not part of them. Lines headed by an entry give the natural chain unless they say otherwise; changes in a name come on top.
UniProt O75459: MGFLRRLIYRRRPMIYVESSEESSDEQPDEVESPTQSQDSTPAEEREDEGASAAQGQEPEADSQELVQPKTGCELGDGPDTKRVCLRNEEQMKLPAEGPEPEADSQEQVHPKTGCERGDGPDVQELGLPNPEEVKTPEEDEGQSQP
UniProt Q96AQ6: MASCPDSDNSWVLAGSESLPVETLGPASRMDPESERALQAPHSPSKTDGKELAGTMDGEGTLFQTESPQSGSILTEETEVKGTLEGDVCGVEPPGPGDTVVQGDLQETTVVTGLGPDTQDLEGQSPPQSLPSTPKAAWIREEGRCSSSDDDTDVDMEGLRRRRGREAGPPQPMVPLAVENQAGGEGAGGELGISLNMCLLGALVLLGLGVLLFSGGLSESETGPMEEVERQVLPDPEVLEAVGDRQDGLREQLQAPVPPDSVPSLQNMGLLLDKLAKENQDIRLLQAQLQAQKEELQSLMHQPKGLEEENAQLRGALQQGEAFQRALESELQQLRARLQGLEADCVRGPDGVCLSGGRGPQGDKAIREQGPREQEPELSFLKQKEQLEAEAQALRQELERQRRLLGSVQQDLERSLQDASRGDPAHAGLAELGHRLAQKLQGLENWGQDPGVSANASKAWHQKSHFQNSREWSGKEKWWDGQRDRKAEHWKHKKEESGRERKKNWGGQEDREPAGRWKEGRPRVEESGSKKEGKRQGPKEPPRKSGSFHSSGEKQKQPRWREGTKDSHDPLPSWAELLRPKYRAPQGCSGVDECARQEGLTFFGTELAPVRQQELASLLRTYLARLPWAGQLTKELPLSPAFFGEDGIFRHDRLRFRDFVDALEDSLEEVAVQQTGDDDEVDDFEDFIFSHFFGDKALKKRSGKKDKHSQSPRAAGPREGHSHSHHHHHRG
UniProt O75381, whole entry, looked up: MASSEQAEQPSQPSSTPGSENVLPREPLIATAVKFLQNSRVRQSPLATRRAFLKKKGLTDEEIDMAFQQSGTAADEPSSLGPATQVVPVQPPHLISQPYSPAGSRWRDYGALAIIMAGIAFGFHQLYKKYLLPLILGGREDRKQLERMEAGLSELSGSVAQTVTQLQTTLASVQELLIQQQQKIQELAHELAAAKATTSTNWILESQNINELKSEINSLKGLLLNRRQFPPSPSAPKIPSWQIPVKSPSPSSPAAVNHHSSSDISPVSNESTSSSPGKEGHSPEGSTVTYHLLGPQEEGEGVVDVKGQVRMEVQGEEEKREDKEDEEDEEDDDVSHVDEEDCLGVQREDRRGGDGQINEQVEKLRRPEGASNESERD
UniProt Q9HBH1: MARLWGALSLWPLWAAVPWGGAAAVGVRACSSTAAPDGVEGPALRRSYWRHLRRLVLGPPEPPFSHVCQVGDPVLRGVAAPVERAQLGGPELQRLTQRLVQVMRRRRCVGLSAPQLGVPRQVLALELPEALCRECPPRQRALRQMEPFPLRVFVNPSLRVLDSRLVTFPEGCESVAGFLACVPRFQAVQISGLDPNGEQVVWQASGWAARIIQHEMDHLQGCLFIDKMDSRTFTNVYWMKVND
UniProt P08559, whole entry, looked up: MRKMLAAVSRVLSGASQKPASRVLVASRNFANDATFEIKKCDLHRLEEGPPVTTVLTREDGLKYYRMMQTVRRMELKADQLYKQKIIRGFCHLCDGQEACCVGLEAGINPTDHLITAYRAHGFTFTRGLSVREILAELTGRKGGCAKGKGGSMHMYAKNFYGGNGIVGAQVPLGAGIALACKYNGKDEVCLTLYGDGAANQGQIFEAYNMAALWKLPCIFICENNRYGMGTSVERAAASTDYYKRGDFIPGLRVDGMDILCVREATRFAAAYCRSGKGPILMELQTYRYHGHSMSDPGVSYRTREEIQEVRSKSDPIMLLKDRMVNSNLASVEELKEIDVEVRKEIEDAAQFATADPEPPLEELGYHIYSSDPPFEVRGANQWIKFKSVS
UniProt Q8N7B6: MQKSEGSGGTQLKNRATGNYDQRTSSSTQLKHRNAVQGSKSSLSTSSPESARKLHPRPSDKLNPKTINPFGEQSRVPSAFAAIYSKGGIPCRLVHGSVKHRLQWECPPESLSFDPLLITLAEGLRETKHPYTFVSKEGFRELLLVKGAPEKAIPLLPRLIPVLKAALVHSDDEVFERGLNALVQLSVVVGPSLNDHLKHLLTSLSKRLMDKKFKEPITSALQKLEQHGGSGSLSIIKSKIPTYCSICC
UniProt Q9BVG4: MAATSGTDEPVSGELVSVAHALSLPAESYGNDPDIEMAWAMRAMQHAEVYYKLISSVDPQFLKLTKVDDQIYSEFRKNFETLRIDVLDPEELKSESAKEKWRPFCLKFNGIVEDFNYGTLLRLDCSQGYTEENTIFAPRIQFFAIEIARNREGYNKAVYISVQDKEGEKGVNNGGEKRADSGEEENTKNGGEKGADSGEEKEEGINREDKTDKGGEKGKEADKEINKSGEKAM
UniProt Q15154: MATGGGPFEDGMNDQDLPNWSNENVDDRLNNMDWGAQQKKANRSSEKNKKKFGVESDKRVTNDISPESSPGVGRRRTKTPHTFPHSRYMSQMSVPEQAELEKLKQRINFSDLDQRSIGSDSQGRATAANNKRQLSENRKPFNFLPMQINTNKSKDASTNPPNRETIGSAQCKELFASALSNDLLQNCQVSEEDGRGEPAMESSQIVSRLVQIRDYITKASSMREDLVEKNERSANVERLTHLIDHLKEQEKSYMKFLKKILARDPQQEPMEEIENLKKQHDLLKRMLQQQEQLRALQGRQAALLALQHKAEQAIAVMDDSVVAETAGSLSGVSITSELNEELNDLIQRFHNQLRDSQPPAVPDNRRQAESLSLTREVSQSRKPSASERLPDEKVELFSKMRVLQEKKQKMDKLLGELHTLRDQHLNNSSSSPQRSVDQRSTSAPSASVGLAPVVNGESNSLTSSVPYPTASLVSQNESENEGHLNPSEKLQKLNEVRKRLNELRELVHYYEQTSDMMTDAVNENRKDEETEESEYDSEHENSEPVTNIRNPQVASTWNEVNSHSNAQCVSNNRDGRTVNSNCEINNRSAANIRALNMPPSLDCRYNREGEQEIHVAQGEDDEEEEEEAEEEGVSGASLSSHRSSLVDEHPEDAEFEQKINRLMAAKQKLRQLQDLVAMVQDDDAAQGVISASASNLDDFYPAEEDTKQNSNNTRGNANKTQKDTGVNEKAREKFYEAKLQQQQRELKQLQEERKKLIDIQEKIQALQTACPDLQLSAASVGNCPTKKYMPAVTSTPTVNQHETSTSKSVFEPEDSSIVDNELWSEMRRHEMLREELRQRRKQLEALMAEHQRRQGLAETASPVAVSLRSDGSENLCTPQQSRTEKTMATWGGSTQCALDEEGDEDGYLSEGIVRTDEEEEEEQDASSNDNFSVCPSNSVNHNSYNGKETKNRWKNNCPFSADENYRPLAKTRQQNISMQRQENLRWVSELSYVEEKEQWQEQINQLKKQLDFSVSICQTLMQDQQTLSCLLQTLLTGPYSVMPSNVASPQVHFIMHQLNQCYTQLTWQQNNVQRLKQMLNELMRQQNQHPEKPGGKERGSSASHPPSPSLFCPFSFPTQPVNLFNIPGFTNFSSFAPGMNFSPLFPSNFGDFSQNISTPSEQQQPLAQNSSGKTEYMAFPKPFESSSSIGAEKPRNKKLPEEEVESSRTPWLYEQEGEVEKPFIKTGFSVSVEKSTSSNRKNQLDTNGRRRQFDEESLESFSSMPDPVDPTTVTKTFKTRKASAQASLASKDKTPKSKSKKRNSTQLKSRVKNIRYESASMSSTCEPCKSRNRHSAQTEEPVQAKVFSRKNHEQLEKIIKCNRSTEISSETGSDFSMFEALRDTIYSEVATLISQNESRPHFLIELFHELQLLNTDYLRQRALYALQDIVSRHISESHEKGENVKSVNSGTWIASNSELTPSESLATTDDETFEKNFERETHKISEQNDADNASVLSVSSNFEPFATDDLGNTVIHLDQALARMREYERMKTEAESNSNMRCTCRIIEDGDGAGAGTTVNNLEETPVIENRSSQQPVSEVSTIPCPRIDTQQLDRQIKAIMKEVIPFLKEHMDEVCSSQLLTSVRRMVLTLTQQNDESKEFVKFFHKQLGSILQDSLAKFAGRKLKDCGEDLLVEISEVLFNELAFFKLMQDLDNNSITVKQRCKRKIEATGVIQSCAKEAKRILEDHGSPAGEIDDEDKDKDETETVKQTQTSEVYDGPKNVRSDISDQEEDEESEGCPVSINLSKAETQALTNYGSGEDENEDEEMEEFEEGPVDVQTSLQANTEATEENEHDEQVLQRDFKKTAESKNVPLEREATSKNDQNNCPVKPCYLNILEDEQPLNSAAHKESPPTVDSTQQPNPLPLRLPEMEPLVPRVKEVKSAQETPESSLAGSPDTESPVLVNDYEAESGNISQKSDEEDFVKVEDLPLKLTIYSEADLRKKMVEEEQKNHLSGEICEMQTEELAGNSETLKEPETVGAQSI
UniProt Q9BPZ3: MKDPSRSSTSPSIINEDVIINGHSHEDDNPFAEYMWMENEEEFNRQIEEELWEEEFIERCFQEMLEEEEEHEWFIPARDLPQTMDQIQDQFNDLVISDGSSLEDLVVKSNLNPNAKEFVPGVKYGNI
UniProt P13667: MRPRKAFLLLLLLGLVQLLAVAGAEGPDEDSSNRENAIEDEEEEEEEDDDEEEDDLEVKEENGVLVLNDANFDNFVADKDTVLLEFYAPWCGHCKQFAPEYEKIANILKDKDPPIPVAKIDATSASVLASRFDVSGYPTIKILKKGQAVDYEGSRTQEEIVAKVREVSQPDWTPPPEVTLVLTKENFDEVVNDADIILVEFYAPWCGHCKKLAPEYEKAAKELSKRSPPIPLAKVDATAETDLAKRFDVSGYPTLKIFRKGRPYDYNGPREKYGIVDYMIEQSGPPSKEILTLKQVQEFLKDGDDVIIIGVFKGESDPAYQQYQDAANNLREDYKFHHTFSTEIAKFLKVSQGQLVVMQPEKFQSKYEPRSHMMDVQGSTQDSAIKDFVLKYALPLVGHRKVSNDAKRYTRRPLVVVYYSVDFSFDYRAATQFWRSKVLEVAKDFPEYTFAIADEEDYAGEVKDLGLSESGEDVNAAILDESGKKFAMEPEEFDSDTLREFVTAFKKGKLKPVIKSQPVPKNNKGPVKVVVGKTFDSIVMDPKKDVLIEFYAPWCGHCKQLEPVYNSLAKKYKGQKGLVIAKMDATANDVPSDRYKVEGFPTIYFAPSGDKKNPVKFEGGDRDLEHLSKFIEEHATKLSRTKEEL
UniProt P05166: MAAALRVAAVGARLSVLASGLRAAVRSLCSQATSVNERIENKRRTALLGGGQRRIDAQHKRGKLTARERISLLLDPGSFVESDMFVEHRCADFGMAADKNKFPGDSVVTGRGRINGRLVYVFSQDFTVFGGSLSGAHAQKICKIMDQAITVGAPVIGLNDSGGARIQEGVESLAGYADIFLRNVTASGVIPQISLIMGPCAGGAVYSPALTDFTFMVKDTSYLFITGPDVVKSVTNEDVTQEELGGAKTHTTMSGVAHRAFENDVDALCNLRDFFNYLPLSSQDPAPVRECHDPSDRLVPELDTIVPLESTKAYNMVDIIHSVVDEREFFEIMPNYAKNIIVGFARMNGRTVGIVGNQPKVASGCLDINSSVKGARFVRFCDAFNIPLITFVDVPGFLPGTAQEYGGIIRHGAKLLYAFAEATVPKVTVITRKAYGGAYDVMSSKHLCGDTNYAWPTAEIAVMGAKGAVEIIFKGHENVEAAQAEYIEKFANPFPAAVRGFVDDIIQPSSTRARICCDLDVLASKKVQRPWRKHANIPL
UniProt Q14554: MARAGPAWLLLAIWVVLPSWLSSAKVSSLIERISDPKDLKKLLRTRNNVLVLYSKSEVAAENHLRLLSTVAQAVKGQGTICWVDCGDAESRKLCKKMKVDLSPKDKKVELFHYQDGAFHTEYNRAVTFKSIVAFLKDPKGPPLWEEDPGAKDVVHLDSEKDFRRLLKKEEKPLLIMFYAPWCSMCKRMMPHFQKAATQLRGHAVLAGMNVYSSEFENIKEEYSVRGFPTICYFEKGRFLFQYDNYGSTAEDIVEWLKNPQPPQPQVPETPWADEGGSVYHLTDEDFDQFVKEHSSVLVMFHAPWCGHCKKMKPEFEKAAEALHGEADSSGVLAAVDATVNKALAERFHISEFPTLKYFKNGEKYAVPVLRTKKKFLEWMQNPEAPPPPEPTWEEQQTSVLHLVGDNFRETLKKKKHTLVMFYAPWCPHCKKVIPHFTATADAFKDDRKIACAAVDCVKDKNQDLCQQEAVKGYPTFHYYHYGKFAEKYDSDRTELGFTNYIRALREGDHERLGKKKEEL
UniProt Q8WW12: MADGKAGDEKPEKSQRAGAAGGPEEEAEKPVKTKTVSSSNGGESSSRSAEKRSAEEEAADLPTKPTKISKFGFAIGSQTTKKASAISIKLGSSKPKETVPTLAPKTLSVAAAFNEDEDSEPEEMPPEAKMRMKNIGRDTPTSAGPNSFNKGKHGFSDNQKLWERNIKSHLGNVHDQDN

Assays:
Assay in all cases: log2 fold change, soluble protein after heating vs DMSO (PISA); higher = thermal stabilisation; K562 cells, 10 uM, 30 min; active = over 0.2 and 3.5 SD of the protein, either way, in both replicates (recomputed)
[1] = compound: CS(=O)(=O)c1ccc(-c2cnc(N)c(C(=O)Nc3ccccc3)n2)cc1
How it was run: (§1)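 Quantification of soluble protein used TMTpro 16plex LC-MS/MS, with channel sums equalised. Samples were the supernatant after 21,000xg for 90 min of pooled aliquots from K562 cells (2×10^6 cells/mL) treated with 10 μM compound for 30 min, heated for 3 min over 48°C-58°C, and extracted in PBS with 0.5% NP-40 at 4°C. Values, from duplicates, describe thermal stability against control samples on a log2 fold-change scale.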

crizotinib = compound: C[C@@H](Oc1cc(-c2cnn(C3CCNCC3)c2)cnc1N)c1c(Cl)ccc(F)c1Cl [crizotinib]
How it was run: as §1

[2] = compound: C[C@@H]1COCCN1C2=NC(=NC(=C2)C3(CC3)S(=O)(=O)C)C4=C5C=CNC5=CC=C4
How it was run: as §1

[3] = compound: C[C@H](C1=CC=C(C=C1)C(=O)NC2=C3C=CNC3=NC=C2)N
How it was run: as §1

duvelisib = compound: C[C@H](Nc1ncnc2nc[nH]c12)c1cc2cccc(Cl)c2c(=O)n1-c1ccccc1 [duvelisib]
How it was run: as §1

gandotinib = compound: Cc1cc(Nc2cc(CN3CCOCC3)c3nc(C)c(Cc4ccc(Cl)cc4F)n3n2)n[nH]1 [gandotinib]
How it was run: as §1

tozasertib = compound: Cc1cc(Nc2cc(N3CCN(C)CC3)nc(Sc3ccc(NC(=O)C4CC4)cc3)n2)n[nH]1 [tozasertib]
How it was run: as §1

[4] = compound: Cc1cc(SCc2sc(-c3ccc(C(F)(F)F)cc3)nc2C)ccc1OCC(=O)O
How it was run: as §1

doramapimod = compound: Cc1ccc(-n2nc(C(C)(C)C)cc2NC(=O)Nc2ccc(OCCN3CCOCC3)c3ccccc23)cc1 [doramapimod]
How it was run: as §1

ispinesib = compound: Cc1ccc(C(=O)N(CCCN)[C@@H](c2nc3cc(Cl)ccc3c(=O)n2Cc2ccccc2)C(C)C)cc1 [ispinesib]
How it was run: as §1

bafetinib = compound: Cc1ccc(NC(=O)c2ccc(CN3CC[C@H](N(C)C)C3)c(C(F)(F)F)c2)cc1Nc1nccc(-c2cncnc2)n1 [bafetinib]
How it was run: as §1

[5] = compound: Cc1cccc(CC(=O)N2CCc3c2ccc(-c2cn(C)c4ncnc(N)c24)c3F)n1
How it was run: as §1

nilotinib = compound: Cc1cn(-c2cc(NC(=O)c3ccc(C)c(Nc4nccc(-c5cccnc5)n4)c3)cc(C(F)(F)F)c2)cn1 [nilotinib]
How it was run: as §1

[6] = compound: Cc1nc(Nc2n[nH]c3c2CN(C(=O)N[C@H](CN(C)C)c2ccccc2)C3(C)C)c2sccc2n1
How it was run: as §1

dasatinib = compound: Cc1nc(Nc2ncc(C(=O)Nc3c(C)cccc3Cl)s2)cc(N2CCN(CCO)CC2)n1 [dasatinib]
How it was run: as §1

[7] = compound: Cc1ncc(-c2ccnc(Nc3ccc(S(C)(=O)=O)cc3)n2)n1C(C)C
How it was run: as §1

[8] = compound: Cn1cc(-c2ccc3c(c2)CCN3C(=O)Cc2cccc(C(F)(F)F)c2)c2c(N)ncnc21
How it was run: as §1

[9] = compound: Cn1cc(-c2ccc3nnc(C(F)(F)c4ccc5ncccc5c4)n3n2)cn1
How it was run: as §1

tipifarnib = compound: Cn1cncc1[C@@](N)(c1ccc(Cl)cc1)c1ccc2c(c1)c(-c1cccc(Cl)c1)cc(=O)n2C [tipifarnib]
How it was run: as §1

mubritinib = compound: FC(F)(F)c1ccc(/C=C/c2nc(COc3ccc(CCCCn4ccnn4)cc3)co2)cc1 [mubritinib]
How it was run: as §1

Measured: log2 fold change

PAPSS1 (UniProt O43252)
inactive: [1] 0.084 | crizotinib 0.021 | [2] 0.043 | [3] -0.104 | duvelisib -0.013 | gandotinib -0.092 | tozasertib -0.017 | [4] 0.004 | doramapimod -0.021 | ispinesib -0.011 | bafetinib -0.067 | [5] 0.026 | nilotinib -0.003 | [6] -0.013 | dasatinib -0.007 | [7] -0.025 | [8] 0.044 | [9] 0.022 | tipifarnib -0.002 | mubritinib 0.023

PAGE1 (UniProt O75459)
inactive: [1] 0.014 | crizotinib 0.01 | [2] -0.101 | [3] 0.031 | duvelisib -0.073 | gandotinib 0.089 | tozasertib -0.07 | [4] -0.089 | doramapimod 0 | ispinesib 0.174 | bafetinib -0.126 | [5] -0.078 | nilotinib 0.011 | [6] -0.074 | dasatinib 0.125 | [7] -0.04 | [8] -0.076 | [9] -0.129 | tipifarnib 0.115 | mubritinib 0.027

PDZD8 (UniProt Q8NEN9)
inactive: [1] -0.006 | crizotinib -0.031 | [2] 0.039 | [3] -0.008 | duvelisib 0.028 | gandotinib -0.253 | tozasertib -0.002 | [4] -0.004 | doramapimod 0.046 | ispinesib -0.019 | bafetinib -0.054 | [5] 0.006 | nilotinib 0.001 | [6] -0.031 | dasatinib -0.029 | [7] -0.044 | [8] 0.057 | [9] -0.011 | tipifarnib 0.038 | mubritinib -0.009

PBXIP1 (UniProt Q96AQ6)
inactive: [1] 0.008 | crizotinib 0.031 | [2] -0.012 | [3] 0.034 | duvelisib -0.015 | gandotinib -0.003 | tozasertib 0.021 | [4] 0.067 | doramapimod 0.045 | ispinesib -0.011 | bafetinib 0.032 | [5] -0.034 | nilotinib -0.004 | [6] 0.024 | dasatinib 0.062 | [7] -0.005 | [8] -0.025 | [9] 0.085 | tipifarnib 0.018 | mubritinib 0.016

PEX14 (UniProt O75381)
inactive: [1] -0.012 | crizotinib 0.016 | [2] 0.053 | [3] -0.056 | duvelisib 0.028 | gandotinib 0 | tozasertib -0.001 | [4] 0.008 | doramapimod 0.077 | ispinesib 0.05 | bafetinib -0.026 | [5] 0 | nilotinib -0.01 | [6] 0.004 | dasatinib 0.047 | [7] -0.004 | [8] -0.012 | [9] 0.042 | tipifarnib 0.003 | mubritinib -0.031

PDF (UniProt Q9HBH1)
inactive: [1] 0.014 | crizotinib -0.033 | [2] -0.022 | [3] -0.026 | duvelisib 0.041 | gandotinib 0.033 | tozasertib 0.03 | [4] 0.001 | doramapimod -0.008 | ispinesib -0.147 | bafetinib -0.146 | [5] -0.02 | nilotinib -0.006 | [6] -0.004 | dasatinib -0.018 | [7] 0.111 | [8] -0.01 | [9] 0.033 | tipifarnib 0.055 | mubritinib -0.011

2 entries drawn at random from the list so far, as already listed:
PBXIP1 (UniProt Q96AQ6)
inactive: [1] 0.008 | crizotinib 0.031 | [2] -0.012 | [3] 0.034 | duvelisib -0.015 | gandotinib -0.003 | tozasertib 0.021 | [4] 0.067 | doramapimod 0.045 | ispinesib -0.011 | bafetinib 0.032 | [5] -0.034 | nilotinib -0.004 | [6] 0.024 | dasatinib 0.062 | [7] -0.005 | [8] -0.025 | [9] 0.085 | tipifarnib 0.018 | mubritinib 0.016

PAPSS1 (UniProt O43252)
inactive: [1] 0.084 | crizotinib 0.021 | [2] 0.043 | [3] -0.104 | duvelisib -0.013 | gandotinib -0.092 | tozasertib -0.017 | [4] 0.004 | doramapimod -0.021 | ispinesib -0.011 | bafetinib -0.067 | [5] 0.026 | nilotinib -0.003 | [6] -0.013 | dasatinib -0.007 | [7] -0.025 | [8] 0.044 | [9] 0.022 | tipifarnib -0.002 | mubritinib 0.023

Continuation.

PDHA1 isoform 4 (UniProt P08559)
inactive: [1] 0.052 | crizotinib -0.041 | [2] -0.114 | [3] 0.206 | duvelisib -0.052 | gandotinib -0.005 | tozasertib 0.022 | [4] 0.197 | doramapimod 0.109 | ispinesib -0.113 | bafetinib 0.245 | [5] 0.131 | nilotinib -0.018 | [6] 0.085 | dasatinib -0.005 | [7] -0.056 | [8] -0.162 | [9] 0.047 | tipifarnib 0.102 | mubritinib 0.137

PACRGL (UniProt Q8N7B6)
inactive: [1] -0.074

PDCL3 (UniProt Q9H2J4)
inactive: [1] 0.051 | crizotinib 0.023 | [2] 0.014 | [3] -0.053 | duvelisib 0.031 | gandotinib -0.049 | tozasertib 0.019 | [4] -0.012 | doramapimod -0.031 | ispinesib 0.047 | bafetinib -0.031 | [5] 0.006 | nilotinib -0.002 | [6] -0.004 | dasatinib 0.016 | [7] -0.012 | [8] 0.039 | [9] 0.005 | tipifarnib -0.047 | mubritinib 0.05

PAXIP1 (UniProt Q6ZW49)
inactive: [1] 0.015 | crizotinib -0.144 | [2] 0.029 | [3] 0.138 | duvelisib 0.046 | gandotinib -0.083 | tozasertib 0.057 | [4] 0.094 | doramapimod 0.025 | ispinesib -0.238 | bafetinib -0.036 | [5] 0.075 | nilotinib -0.019 | [6] -0.018 | dasatinib -0.113 | [7] -0.053 | [8] -0.261 | [9] 0.107 | tipifarnib 0.02 | mubritinib 0.025

PBDC1 (UniProt Q9BVG4)
inactive: [1] 0.002 | crizotinib -0.043 | [2] 0.007 | [3] 0.038 | duvelisib 0.008 | gandotinib -0.104 | tozasertib 0.03 | [4] 0.041 | doramapimod 0.019 | ispinesib 0.002 | bafetinib -0.052 | [5] -0.084 | nilotinib -0.075 | [6] 0.002 | dasatinib -0.062 | [7] -0.047 | [8] 0.039 | [9] 0.016 | tipifarnib -0.103 | mubritinib 0.008

PCM1 isoform 5 (UniProt Q15154)
inactive: [1] 0.041 | crizotinib -0.041 | [2] -0.141 | [3] 0.246 | duvelisib -0.082 | gandotinib 0.08 | tozasertib 0.04 | [4] 0.063 | doramapimod 0.082 | ispinesib -0.081 | bafetinib -0.008 | [5] 0.004 | nilotinib -0.202 | [6] -0.033 | dasatinib 0.019 | [7] -0.056 | [8] -0.19 | [9] -0.089 | tipifarnib 0.049 | mubritinib -0.11

PAIP2 (UniProt Q9BPZ3)
inactive: [1] -0.057 | crizotinib 0.012 | [2] -0.003 | [3] 0.182 | duvelisib 0.094 | gandotinib 0.036 | tozasertib 0.087 | [4] -0.016 | doramapimod 0.068 | ispinesib -0.101 | bafetinib 0.028 | [5] 0.048 | nilotinib -0.085 | [6] 0.117 | dasatinib -0.081 | [7] 0.129 | [8] -0.338 | [9] -0.039 | tipifarnib 0.003 | mubritinib 0.055

PDIA4 (UniProt P13667)
inactive: [1] 0 | crizotinib 0.041 | [2] -0.061 | [3] 0.041 | duvelisib -0.042 | gandotinib 0.028 | tozasertib 0.038 | [4] 0.047 | doramapimod 0.033 | ispinesib 0.022 | bafetinib 0.036 | [5] 0 | nilotinib -0.005 | [6] 0.049 | dasatinib -0.007 | [7] -0.035 | [8] -0.067 | [9] -0.027 | tipifarnib 0.049 | mubritinib -0.125

PCCB isoform 2 (UniProt P05166)
inactive: [1] 0.013 | crizotinib 0.011 | [2] 0.065 | [3] -0.013 | duvelisib 0.042 | gandotinib 0.016 | tozasertib 0.025 | [4] 0.022 | doramapimod -0.002 | ispinesib 0.01 | bafetinib 0.031 | [5] 0.017 | nilotinib 0.012 | [6] 0.029 | dasatinib -0.056 | [7] -0.083 | [8] -0.025 | [9] 0.03 | tipifarnib -0.011 | mubritinib 0.128

PDIA5 (UniProt Q14554)
inactive: [1] 0.014 | crizotinib 0.114 | [2] -0.133 | [3] 0.093 | duvelisib -0.078 | gandotinib 0.103 | tozasertib 0.036 | [4] 0.049 | doramapimod 0.022 | ispinesib 0.023 | bafetinib 0.02 | [5] -0.008 | nilotinib 0.013 | [6] 0.028 | dasatinib 0.031 | [7] -0.059 | [8] -0.057 | [9] 0.014 | tipifarnib 0.088 | mubritinib -0.095

PCNP (UniProt Q8WW12)
inactive: [1] 0 | crizotinib 0.001 | [2] -0.002 | [3] 0.001 | duvelisib -0.005 | gandotinib 0.018 | tozasertib -0.027 | [4] -0.035 | doramapimod -0.036 | ispinesib 0.082 | bafetinib -0.036 | [5] -0.036 | nilotinib 0.041 | [6] 0.01 | dasatinib 0.081 | [7] 0.025 | [8] -0.005 | [9] 0.01 | tipifarnib -0.035 | mubritinib 0.022
